This sample is rich in variants without activity.
B1: tRNA (parent)
chain: GUUCCGUUGGCGUAAUGGUAACGCGUCUCCCUCCUAAGGAGAAGACUGCGGGUUCGAGUCCCGUACGGAACG

Variants of: B1
Assay: yeast fitness relative to wild type (ratio to wild type); higher = fitter; tRNA-Arg(CCU), competitive growth, 37 C, YPD
How it was run: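 A pool of Saccharomyces cerevisiae strains, each with a tRNA-Arg(CCU) gene variant at the native genomic locus, was competed in YPD at 37°C for 24 hours across six parallel replicates. The variants had been chemically synthesised at a 3% per-site mutation rate over 69 sites, and gene amplicons before and after competition were read by 100-nucleotide paired-end sequencing. Darwinian fitness relative to wild type rested on changes in genotype frequencies. Genotypes required ≥ 100 starting reads, and estimates < 0.5 were set to 0.5.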

Variant | yeast fitness
U7C G18A C31A A69U | ≤ 0.5
U7C G48C C66G | ≤ 0.5
U7C U8G U19C C30U A36U | ≤ 0.5
U7C U16C G50A C55U A65G | ≤ 0.5
U7C U47C C60G | ≤ 0.5
U7G A20G C27U C49G G52C | ≤ 0.5
U7G A21G C60U | ≤ 0.5
U7G A37G C55G | ≤ 0.5
U7G A42G G68A | ≤ 0.5
U7G C11G C34U G41A C66U | ≤ 0.5
U7G C11U G12C C33U C61G C62G C66U | ≤ 0.5
U7G C11U G38A G51A U54A | ≤ 0.5
U7G C22U G51C G58A | ≤ 0.5
U7G C27A A45U U53G A65C | ≤ 0.5
U7G C62G | 0.603
U7G G9A U28G C46G C49U A69C | ≤ 0.5
U7G G12A G25A | ≤ 0.5
U7G G18A C27G U28G | ≤ 0.5
U7G G18C U53G | ≤ 0.5
U7G G39C A57G | ≤ 0.5
U7G U13A A15G U32C U54A C61U | ≤ 0.5
U7G U13C C31U A40U C66G G68C | ≤ 0.5
U7G U28C G41C G58C | ≤ 0.5
U7G U32A U35C C61G | ≤ 0.5

Variant | yeast fitness
U7G U32C C61A | ≤ 0.5
U8A A14U A15G U32C A57U | 0.599
U8A A40C C46U G52A | ≤ 0.5
U8A A43G U47A | ≤ 0.5
U8A C11A C66A | ≤ 0.5
U8A C11G C29A C46G | ≤ 0.5
U8A C11G G50A | ≤ 0.5
U8A C11U U19C C46A G68U | ≤ 0.5
U8A C22A C33A A36U U54A | ≤ 0.5
U8A C27U A40G | ≤ 0.5
U8A C31A C33G | 0.542
U8A C31U A37G | ≤ 0.5
U8A C55U G68A | 0.578
U8A C61G | ≤ 0.5
U8A G9A C24G | ≤ 0.5
U8A G10A G39A | 0.626
U8A G12C U47A C55A | ≤ 0.5
U8A G18C C24A U32C A70U | ≤ 0.5
U8A G23C G63C | ≤ 0.5
U8A G25A U26A A42C | ≤ 0.5
U8A G25C A37C | ≤ 0.5
U8A U13A A14C | ≤ 0.5
U8A U16A C29G A42G C46G A65U | ≤ 0.5
U8A U19C C31A U35G A43G U47C G52C G67A | 0.575

Variant | yeast fitness
U8A U26G | 0.666
U8A U28C A43U | ≤ 0.5
U8C A14U C30A C61U C62A A70G | 0.532
U8C A14U G48C A70C | ≤ 0.5
U8C A15C A20U G67C | ≤ 0.5
U8C A20G A65G G68A | ≤ 0.5
U8C A36U G38A | ≤ 0.5
U8C A40C C61A | ≤ 0.5
U8C A42C A65G C66G | ≤ 0.5
U8C A45U A65U | 0.709
U8C C11U C24G G63C G67A | ≤ 0.5
U8C C11U C27U C31A U35C C55G C66U A70C | ≤ 0.5
U8C C22G C27U C49U U64C | ≤ 0.5
U8C C22G C49U U64C | 0.679
U8C C22U C31U C60A | ≤ 0.5
U8C C27G C33A U47A | ≤ 0.5
U8C C27U C34G | ≤ 0.5
U8C C27U C34G C60A A69U | ≤ 0.5
U8C C30A C46G U54A | ≤ 0.5
U8C C33U G58C | ≤ 0.5
U8C G12C C46G G52A G58A | ≤ 0.5
U8C G17A G58A C61U | ≤ 0.5
U8C G23C C29G A45U C66U A69C | ≤ 0.5
U8C G25A G48A C62G A69U | ≤ 0.5

Variant | yeast fitness
U8C G50A | 0.773
U8C G51A C66A | ≤ 0.5
U8C U19A C33U | ≤ 0.5
U8C U26C G51C C62G A70C | ≤ 0.5
U8C U32G A45G C49U A70U | ≤ 0.5
U8G A20U A45U U47A U59C A69C | ≤ 0.5
U8G A37U | ≤ 0.5
U8G C24G C31U | ≤ 0.5
U8G C27A U35C C61A G67A | ≤ 0.5
U8G C55G | ≤ 0.5
U8G U13A C30U G39C C55G A65C A70C | ≤ 0.5
U8G U32C C66U | ≤ 0.5
G9A A14C C22G U54C A57G | ≤ 0.5
G9A A14C G25C | ≤ 0.5
G9A A14C U32A | ≤ 0.5
G9A A14C U59A C60G G67C | ≤ 0.5
G9A A20C G38C A70C | ≤ 0.5
G9A A42G | 0.96
G9A A57G | 0.933
G9A C11A A20U C29G G58C | ≤ 0.5
G9A C11A C24U C34A A37U C62A C66A | ≤ 0.5
G9A C11A G38C C60G | ≤ 0.5
G9A C24U U32G | ≤ 0.5
G9A C27G | 0.757

Variant | yeast fitness
G9A C29A G50A A69C | ≤ 0.5
G9A C30U G38C | ≤ 0.5
G9A C30U G39A A40G G67A | ≤ 0.5
G9A C31U C49U A69C | ≤ 0.5
G9A C46G | 0.993
G9A C49A C55U | ≤ 0.5
G9A G10A C31G G52A A65C | ≤ 0.5
G9A G10C C31A A36G | ≤ 0.5
G9A G23A G39C C62G U64C | ≤ 0.5
G9A G63U U64G | ≤ 0.5
G9A U16C A20C A40G G44U C55U | ≤ 0.5
G9A U32C C33G A37G G51A | ≤ 0.5
G9A U32G A40C G41A | ≤ 0.5
G9C A14G U16G G23A C33A G44A | ≤ 0.5
G9C A15U U28G C55G A69U | 0.599
G9C A36U G50C C61U C66U | ≤ 0.5
G9C A37U A43G C55U | ≤ 0.5
G9C C11U A20C C31U A65C | ≤ 0.5
G9C C11U C22G | ≤ 0.5
G9C C22A C34A C49U A65G | ≤ 0.5
G9C C22A C34A G51A A65U | ≤ 0.5
G9C C22U G39A C66U | ≤ 0.5
G9C C24G C30U | ≤ 0.5
G9C C24G C33G U35A G48C A69C | ≤ 0.5

Variant | yeast fitness
G9C C24U C30G G52A C61U | ≤ 0.5
G9C C27A G51C | ≤ 0.5
G9C C27G C29G A36C | ≤ 0.5
G9C C30U A37C C46U | ≤ 0.5
G9C C31U A36G A43G | ≤ 0.5
G9C C34G G68A | ≤ 0.5
G9C C34G U47C G48C | ≤ 0.5
G9C C34G U54G | ≤ 0.5
G9C G10A C24G A37U | ≤ 0.5
G9C G23A A40C | ≤ 0.5
G9C G23A A40C G48A U53G | ≤ 0.5
G9C G38A | 0.624
G9C G39A C66G | ≤ 0.5
G9C G39C A45C | ≤ 0.5
G9C G50A G51A | ≤ 0.5
G9C U13C A42C G68C | ≤ 0.5
G9C U13G C24U G51C | ≤ 0.5
G9C U35A A43U | ≤ 0.5
G9C U47G G52A C61A G67C | ≤ 0.5
G9U U16C C55G G67A | ≤ 0.5
G10A A14G U47C | ≤ 0.5
G10A A20C C27G A40G | ≤ 0.5
G10A A21G C22A C31A A69C | ≤ 0.5
G10A A36G C60G | ≤ 0.5

Variant | yeast fitness
G10A C11G C31G A43C | ≤ 0.5
G10A C11U A20G A40G C55G A69C | ≤ 0.5
G10A C11U C29A C34A G44A | ≤ 0.5
G10A C24G C34U | ≤ 0.5
G10A C27A A36U A37U G48C G50A C61G A69U | ≤ 0.5
G10A C27G C33G G41C C61A | ≤ 0.5
G10A C27U A40C U47A G48C C66U | ≤ 0.5
G10A C33A | ≤ 0.5
G10A C33U G50A | ≤ 0.5
G10A C34G A43G G68C | ≤ 0.5
G10A C49G G68C | ≤ 0.5
G10A C60G | 0.531
G10A G17A A36G A40C U64C | ≤ 0.5
G10A G17A U19A C29U | ≤ 0.5
G10A G17C C30G C33G C61A A65U | ≤ 0.5
G10A G18A A42C C61A C62G A65U | ≤ 0.5
G10A G18C C24U C30G | ≤ 0.5
G10A G39C A40G C66G A69C | ≤ 0.5
G10A U16A A65G C66U | ≤ 0.5
G10A U16A C31A G51A U59A | ≤ 0.5
G10A U16A G44A A65G | ≤ 0.5
G10A U26A A43G A70U | ≤ 0.5
G10A U28C A42U | ≤ 0.5
